Results taken from publication PMC9927451.
These are yes or no findings as the source states them, for the method shown. Binding can be weak; no strength is given. Tags and fused reporters may be left off the sequences shown.

How the values were obtained:
[1] = molecular target: ParA (P. aeruginosa), BACTH fusion (P. aeruginosa); assay: two-hybrid; bacterial two-hybrid (BACTH): CyaT18 and CyaT25 fusions co-expressed in E. coli BTH101 cya-; MacConkey agar with 1% maltose and 0.15 mM IPTG at 28°C; β-galactosidase activity of cultures grown overnight at 28°C
[2] = molecular target: ParB 37-290, BACTH fusion (P. aeruginosa); assay: as above

Binder | binding [1] | binding [2]
MinC (P. aeruginosa), BACTH fusion (protein, UniProt Q9HYZ7 1-263) MSQADLLDQDPVFQLKGSMLAVTILELAHNDLARLERQLADKVAQAPNFFRDTPLVMALDKLPEGEGRLDLPALLEVCRRHGLRTLAIRAGREEDIAAAQALDLPVLPPSGARERPLDIKDSAPRKPAEEPSPSAGEARPEPAKAEEKPAEPVSRPTKVVKTPVRGGMQIYAAGGDLIVLAAVSPGAELLADGNIHVYGPMRGRALAGVKGDATARIFCQQLAAELVSIAGNYKVAEDLRRSPQWGKAVHVSLSGDVLNITRL | binds | –
PA4465 (YhbJ/RapZ), full length, BACTH fusion (protein, UniProt Q9HVV3 1-286) MRLIIVSGRSGSGKSTALNVLEDNGFYCIDNLPASLLPDLAQRALLHTELLQPQVAVSIDARNLPSQLQRFPELLQEVRDNHINCDVLYLDADDETLLKRFSETRRRHPLTTDTRSLAEAIGDESQLLGPIADLADLKLDTTSLNLYQLRDTIKLRLLNKPEPGTAFLVESFGFKRGMPVDADLVFDVRCLPNPYWKPELRDHSGLEPEVREYLAAQPDVEEMYQDIVGYLNKWLPRFAASNRSYVTVAIGCTGGHHRSVYLAERIGAALRDSLKNVQIRHRDLSS | – | binds
MinD (PA3244), BACTH fusion (protein, UniProt Q9HYZ6 1-271) MAKILVVTSGKGGVGKTTTSAAIGTGLALRGFKTVIVDFDVGLRNLDLIMGCERRVVYDFVNVVNGEATLTQALIKDKRLENLHVLAASQTRDKDALTKEGVEKVMAELRKDFEYIICDSPAGIEKGAHLAMYFADEAIVVTNPEVSSVRDSDRMLGLLASKSQRAEKGEEPIKEHLLLTRYNPERVTKGEMLGVDDVEEILAIRLLGVIPESQAVLKASNQGVPVILDEQSDAGQAYSDAVDRLLGKEIPHRFLDVQKKGFLQRLFGGRE | no binding | –
